One substance from paper PMC11351588 can be followed below.

Chains of the proteins cited; added tags and fusions are not shown.
UniProt Q13616: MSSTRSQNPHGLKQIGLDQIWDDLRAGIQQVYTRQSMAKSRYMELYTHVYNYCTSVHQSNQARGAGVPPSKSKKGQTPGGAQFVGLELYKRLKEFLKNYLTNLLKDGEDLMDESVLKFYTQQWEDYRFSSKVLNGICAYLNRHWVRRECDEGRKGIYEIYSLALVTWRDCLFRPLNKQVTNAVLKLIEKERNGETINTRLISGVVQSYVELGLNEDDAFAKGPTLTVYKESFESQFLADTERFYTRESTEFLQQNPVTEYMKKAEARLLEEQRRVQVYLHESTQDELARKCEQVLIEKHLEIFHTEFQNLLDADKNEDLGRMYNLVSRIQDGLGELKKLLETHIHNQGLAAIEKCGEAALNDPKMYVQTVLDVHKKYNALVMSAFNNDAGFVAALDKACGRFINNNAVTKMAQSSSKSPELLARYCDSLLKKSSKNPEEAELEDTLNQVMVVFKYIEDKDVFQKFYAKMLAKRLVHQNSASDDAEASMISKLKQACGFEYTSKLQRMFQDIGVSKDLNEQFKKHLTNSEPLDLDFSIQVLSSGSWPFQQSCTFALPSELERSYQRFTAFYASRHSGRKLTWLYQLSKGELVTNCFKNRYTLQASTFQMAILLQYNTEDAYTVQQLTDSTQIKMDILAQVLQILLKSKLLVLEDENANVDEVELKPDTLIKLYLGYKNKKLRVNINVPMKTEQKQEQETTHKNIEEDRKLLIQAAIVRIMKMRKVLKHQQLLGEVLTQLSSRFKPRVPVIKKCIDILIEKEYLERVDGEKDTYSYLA

For this assay, the target named is Myc-Cullin1-full (UniProt Q13616). Nature of the assay: co-IP; HEK-293T co-transfected with tagged constructs; lysis in 25 mM Tris-HCl pH 8.0, 150 mM NaCl, 1% Nonidet P-40, 1 mM EDTA; IP with tag antibody and Protein G-Sepharose at 4 °C, immunoblot; cells of the MDM2 homodimer experiment treated with 20 µM MG132 for 16 h. In general terms: A western blot detects proteins with antibodies after separation by electrophoresis.

Results are given in words; binding and its absence hold for the method and conditions named. Binding seen in cells or lysates may run through a third protein. Some binding calls cover weakened binding; strength is not graded here.

In the case of V5-MDM2 (from UniProt Q00987 1-491), the binding result is listed as “binds”.
